According to the supplement of paper PMC11659162:
Where “and” joins values, the source holds several entries; their conditions need not be identical. Equal entries are not always repeated. The list shows a part of the results. This is a noisy data set.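 The cells are a human neuroglioma line carrying a green fluorescent autophagy reporter.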

Tested on: H4 GFP-LC3
Assay: cell viability (scaled to control) (fraction of control); higher = more viable cells
Conditions: 6 h

Row | SMILES | cell viability
1 | CSCCC(NC(=O)C(CC(C)C)NC(=O)C(Cc1c[nH]cn1)NC(=O)CNC(=O)C(NC(=O)C(C)NC(=O)C(Cc1c[nH]c2ccccc12)NC(=O)C(Cc1c[nH]cn1)NC(=O)C(CC(N)=O)NC(=O)CNC(=O)C(CCCNC(=N)N)NC(=O)C1CCCN1C(=O)C(Cc1ccc(O)cc1)NC(=O)C(CCSC)NC(=O)C(CCCCN)NC(=O)C(NC(=O)C(CC(C)C)NC(=O)C(NC(=O)C(NC(=O)CNC(=O)CNC(=O)CNC(=O)C(C)NC(=O)C1CCCN1C(=O)C(CC(C)C)NC(=O)C1CCCN1C(=O)C(N)C(C)C)C(C)O)C(C)C)C(C)O)C(C)C)C(N)=O (centres undefined) (5 µM) | 1.12
2 | COc1ccccc1N1CCN(CCCCN2C(=O)CCC2=O)CC1 (5 µM) | 0.885
3 | COC(=O)Nc1ccc2[nH]cc(CCNC(C)=O)c2c1 (5 µM) | 1.13
4 | Cc1nc(N=Nc2cc(S(=O)(=O)O)c3cc([N+](=O)[O-])cc(S(=O)(=O)O)c3c2)c(COP(=O)(O)O)c(C=O)c1O (5 µM) | 1.07
5 | O=C(OCCN1CCOCC1)C1(c2ccccc2)CCCCC1 (5 µM) | 1.17
6 | O=C(Cc1ccccc1)Nc1nc2ccc(Cl)cc2c2nc(-c3ccco3)nn12 (5 µM) | 0.997
7 | N[C@@H](CCS(=O)O)C(=O)O (5 µM) | 1.03
8 | CCN(CC)CCOCCOC(=O)C1(c2ccccc2)CCCC1 (5 µM) | 1
9 | c1ccc(CN2CCC3(CCc4ccccc43)CC2)cc1 (5 µM) | 0.922
10 | N[C@@H](CC(=O)O)C(=O)O (5 µM) | 1.07 and 1.16
11 | N=C(N)NC(=O)Cc1c(Cl)cccc1Cl (5 µM) | 0.736
12 | c1nc(CC2CCNCC2)c[nH]1 (5 µM) | 1.05
13 | COc1cc2nc(N3CCN(C(=O)c4ccco4)CC3)nc(N)c2cc1OC (5 µM) | 0.904
14 | CC(N)(C(=O)O)c1ccc(-c2nnn[nH]2)cc1 (racemic) (5 µM) | 1.03
15 | CCC(N)(C(=O)O)c1ccc(C(=O)O)cc1 (racemic) (5 µM) | 1.01
16 | CC(C)NCC(O)c1ccc(O)c(O)c1 (racemic) (5 µM) | 0.816
17 | O=C(Nc1ccccc1)C12CC1C(=NO)c1ccccc1O2 (centres undefined) (5 µM) | 0.941
18 | CN1CCN(C2=Nc3cc(Cl)ccc3Nc3ccccc32)CC1 (5 µM) | 0.731
19 | CCCCCCN(CCCCCC)C(=O)Cc1c(-c2ccc(F)cc2)[nH]c2ccccc12 (5 µM) | 0.94

Row | SMILES | cell viability
20 | CC(=O)OCC[N+](C)(C)C (5 µM) | 1.15 and 0.882
21 | CC(C)NCC(O)COc1cccc2[nH]ccc12 (centres undefined) (5 µM) | 0.871
22 | c1ccc(N2CCN(CCCOc3ccc4c(c3)OCO4)CC2)cc1 (5 µM) | 0.811
23 | Nc1ncnc2c1ncn2[C@@H]1O[C@H](COP(=O)(O)OP(=O)(O)O)[C@@H](O)[C@H]1O (5 µM) | 0.801
24 | Cc1ccc(N(CC2=NCCN2)c2cccc(O)c2)cc1 (5 µM) | 0.85
25 | CN1CCC(=C2c3ccccc3CCc3sccc32)CC1 (5 µM) | 0.868
26 | Cn1c(=O)c2c(ncn2C)n(C)c1=O (5 µM) | 1.02
27 | CN(CCc1ccc(Cl)c(Cl)c1)CCN1CCCC1 (5 µM) | 0.935
28 | N[C@@H](CSS(=O)(=O)O)C(=O)O (5 µM) | 0.949
29 | NC(=O)OCC(COC(N)=O)c1ccccc1 (5 µM) | 1.09
30 | CCC1(c2ccccc2)C(=O)NCNC1=O (5 µM) | 0.964
31 | CCCCCCN(CCCCCC)C(=O)Cc1c(-c2ccc(Cl)cc2)[nH]c2ccc(Cl)cc12 (5 µM) | 0.903
32 | C[C@]12C[C@H](O)[C@H]3[C@@H](CCC4=CC(=O)CC[C@@]43C)[C@@H]1CC[C@@H]2C(=O)CO (5 µM) | 1.15
33 | C[C@@](N)(C(=O)O)c1ccc(C(=O)O)cc1 (5 µM) | 1.03
34 | CN(C)CCOC(c1ccccc1)c1ccccc1 (5 µM) | 0.999
35 | N[C@H](CCC(=O)O)C(=O)O (5 µM) | 1.07
36 | C/N=C(/NC#N)NCCSCc1csc(NC(=N)N)n1 (5 µM) | 1.12
37 | CC(C[N+](C)(C)C)OC(N)=O (centres undefined) (5 µM) | 0.949

Same assay, conditions: 24 h

Row | SMILES | cell viability
38 | CSCCC(NC(=O)C(CC(C)C)NC(=O)C(Cc1c[nH]cn1)NC(=O)CNC(=O)C(NC(=O)C(C)NC(=O)C(Cc1c[nH]c2ccccc12)NC(=O)C(Cc1c[nH]cn1)NC(=O)C(CC(N)=O)NC(=O)CNC(=O)C(CCCNC(=N)N)NC(=O)C1CCCN1C(=O)C(Cc1ccc(O)cc1)NC(=O)C(CCSC)NC(=O)C(CCCCN)NC(=O)C(NC(=O)C(CC(C)C)NC(=O)C(NC(=O)C(NC(=O)CNC(=O)CNC(=O)CNC(=O)C(C)NC(=O)C1CCCN1C(=O)C(CC(C)C)NC(=O)C1CCCN1C(=O)C(N)C(C)C)C(C)O)C(C)C)C(C)O)C(C)C)C(N)=O (centres undefined) (5 µM) | 1.11
39 | COc1ccccc1N1CCN(CCCCN2C(=O)CCC2=O)CC1 (5 µM) | 0.722
40 | COC(=O)Nc1ccc2[nH]cc(CCNC(C)=O)c2c1 (5 µM) | 0.981
41 | Cc1nc(N=Nc2cc(S(=O)(=O)O)c3cc([N+](=O)[O-])cc(S(=O)(=O)O)c3c2)c(COP(=O)(O)O)c(C=O)c1O (5 µM) | 1.01
42 | O=C(OCCN1CCOCC1)C1(c2ccccc2)CCCCC1 (5 µM) | 1.09
43 | O=C(Cc1ccccc1)Nc1nc2ccc(Cl)cc2c2nc(-c3ccco3)nn12 (5 µM) | 0.935
44 | N[C@@H](CCS(=O)O)C(=O)O (5 µM) | 1.3
45 | CCN(CC)CCOCCOC(=O)C1(c2ccccc2)CCCC1 (5 µM) | 1.21
46 | c1ccc(CN2CCC3(CCc4ccccc43)CC2)cc1 (5 µM) | 1.19
47 | N[C@@H](CC(=O)O)C(=O)O (5 µM) | 1.07 and 1.1
48 | N=C(N)NC(=O)Cc1c(Cl)cccc1Cl (5 µM) | 0.871
49 | c1nc(CC2CCNCC2)c[nH]1 (5 µM) | 1.13
50 | COc1cc2nc(N3CCN(C(=O)c4ccco4)CC3)nc(N)c2cc1OC (5 µM) | 0.944
51 | CC(N)(C(=O)O)c1ccc(-c2nnn[nH]2)cc1 (racemic) (5 µM) | 1.36
52 | CCC(N)(C(=O)O)c1ccc(C(=O)O)cc1 (racemic) (5 µM) | 1.3
53 | CC(C)NCC(O)c1ccc(O)c(O)c1 (racemic) (5 µM) | 0.971
54 | O=C(Nc1ccccc1)C12CC1C(=NO)c1ccccc1O2 (centres undefined) (5 µM) | 1.32
55 | CN1CCN(C2=Nc3cc(Cl)ccc3Nc3ccccc32)CC1 (5 µM) | 0.972
56 | CCCCCCN(CCCCCC)C(=O)Cc1c(-c2ccc(F)cc2)[nH]c2ccccc12 (5 µM) | 1.06

Row | SMILES | cell viability
57 | CC(=O)OCC[N+](C)(C)C (5 µM) | 1.27 and 1.21
58 | CC(C)NCC(O)COc1cccc2[nH]ccc12 (centres undefined) (5 µM) | 0.92
59 | c1ccc(N2CCN(CCCOc3ccc4c(c3)OCO4)CC2)cc1 (5 µM) | 1.02
60 | Nc1ncnc2c1ncn2[C@@H]1O[C@H](COP(=O)(O)OP(=O)(O)O)[C@@H](O)[C@H]1O (5 µM) | 1.15
61 | Cc1ccc(N(CC2=NCCN2)c2cccc(O)c2)cc1 (5 µM) | 0.988
62 | CN1CCC(=C2c3ccccc3CCc3sccc32)CC1 (5 µM) | 1.01
63 | Cn1c(=O)c2c(ncn2C)n(C)c1=O (5 µM) | 1.22
64 | CN(CCc1ccc(Cl)c(Cl)c1)CCN1CCCC1 (5 µM) | 1.15
65 | N[C@@H](CSS(=O)(=O)O)C(=O)O (5 µM) | 1.42
66 | NC(=O)OCC(COC(N)=O)c1ccccc1 (5 µM) | 1.55
67 | CCC1(c2ccccc2)C(=O)NCNC1=O (5 µM) | 1.17
68 | CCCCCCN(CCCCCC)C(=O)Cc1c(-c2ccc(Cl)cc2)[nH]c2ccc(Cl)cc12 (5 µM) | 1.02
69 | C[C@]12C[C@H](O)[C@H]3[C@@H](CCC4=CC(=O)CC[C@@]43C)[C@@H]1CC[C@@H]2C(=O)CO (5 µM) | 0.98
70 | C[C@@](N)(C(=O)O)c1ccc(C(=O)O)cc1 (5 µM) | 1.32
71 | CN(C)CCOC(c1ccccc1)c1ccccc1 (5 µM) | 0.945
72 | N[C@H](CCC(=O)O)C(=O)O (5 µM) | 1.14
73 | C/N=C(/NC#N)NCCSCc1csc(NC(=N)N)n1 (5 µM) | 0.915
74 | CC(C[N+](C)(C)C)OC(N)=O (centres undefined) (5 µM) | 1.34
